In publication PMC9570040:
These are yes or no findings as the source states them, for the method shown. Binding seen in cells or lysates may run through a third protein. Some binding calls cover weakened binding; strength is not graded here.

Sequences of proteins named here, by UniProt entry; tags and fusion partners are left off.
UniProt Q9UPY5: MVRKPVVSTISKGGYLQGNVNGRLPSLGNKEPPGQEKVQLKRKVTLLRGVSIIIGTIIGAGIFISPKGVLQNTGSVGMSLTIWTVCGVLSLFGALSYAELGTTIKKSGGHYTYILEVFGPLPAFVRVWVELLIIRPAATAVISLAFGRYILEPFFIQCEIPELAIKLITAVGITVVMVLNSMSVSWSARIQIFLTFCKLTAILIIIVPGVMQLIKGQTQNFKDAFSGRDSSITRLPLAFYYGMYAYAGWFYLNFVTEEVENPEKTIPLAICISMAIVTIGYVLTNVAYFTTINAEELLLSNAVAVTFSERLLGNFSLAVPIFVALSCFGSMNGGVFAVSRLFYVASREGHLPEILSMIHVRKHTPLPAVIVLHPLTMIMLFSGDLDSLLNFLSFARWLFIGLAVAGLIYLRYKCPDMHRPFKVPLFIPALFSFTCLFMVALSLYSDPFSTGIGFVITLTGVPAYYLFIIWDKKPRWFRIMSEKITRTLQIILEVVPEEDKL
UniProt Q14457: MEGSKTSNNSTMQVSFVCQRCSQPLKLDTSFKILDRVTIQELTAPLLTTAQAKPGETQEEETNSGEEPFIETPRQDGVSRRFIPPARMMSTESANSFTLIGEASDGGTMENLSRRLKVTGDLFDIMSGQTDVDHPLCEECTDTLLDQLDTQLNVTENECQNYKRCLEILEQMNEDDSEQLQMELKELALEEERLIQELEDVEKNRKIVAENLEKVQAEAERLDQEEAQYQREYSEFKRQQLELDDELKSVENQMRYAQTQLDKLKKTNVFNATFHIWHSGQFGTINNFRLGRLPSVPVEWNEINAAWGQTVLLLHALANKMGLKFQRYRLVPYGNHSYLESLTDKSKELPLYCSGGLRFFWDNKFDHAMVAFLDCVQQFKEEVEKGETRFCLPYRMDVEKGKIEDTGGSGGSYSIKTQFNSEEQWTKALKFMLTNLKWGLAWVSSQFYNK

How the values were obtained:
[1] = molecular target: solute carrier family 7 member 11 (human (endogenous in Huh7 and Hep3B)) (UniProt Q9UPY5); experiment: co-IP; cells with ectopic expression of MCL1 (pCMV6-MCL1-Myc-DDK) or without, 2.5 µM sorafenib for 16 h; cell line and precipitating antibody not named in the legend
[2] = molecular target: solute carrier family 7 member 11 (human (endogenous in Huh7 and Hep3B)) (UniProt Q9UPY5); experiment: co-IP; endogenous proteins; Huh7 lysate (IP buffer: 1 mM EDTA, 50 mM Tris-HCl pH 7.4, 120 mM NaCl, 1% NP-40, 0.25% sodium deoxycholate) precipitated with anti-MCL1 or anti-SLC7A11 and protein A agarose, 4 °C; Western blot; cells with or without 2.5 µM sorafenib for 16 h
[3] = molecular target: beclin 1 (human (endogenous in Huh7 and Hep3B)) (UniProt Q14457); experiment: co-IP; endogenous proteins; Hep3B lysate precipitated with anti-BECN1 and protein A agarose, 4 °C; Western blot; cells with or without 5 µM sorafenib for 16 h

Substance | binding [1] | binding [2] | binding [3]
beclin 1 (from UniProt Q14457 1-450) | binds | binds | –
solute carrier family 3 member 2 (from UniProt P08195 1-529) | – | – | no binding
